Source: article PMC7485968 (2020)

Molecular target: T1, His-tagged ERG (UniProt P11308)
T1 sequence: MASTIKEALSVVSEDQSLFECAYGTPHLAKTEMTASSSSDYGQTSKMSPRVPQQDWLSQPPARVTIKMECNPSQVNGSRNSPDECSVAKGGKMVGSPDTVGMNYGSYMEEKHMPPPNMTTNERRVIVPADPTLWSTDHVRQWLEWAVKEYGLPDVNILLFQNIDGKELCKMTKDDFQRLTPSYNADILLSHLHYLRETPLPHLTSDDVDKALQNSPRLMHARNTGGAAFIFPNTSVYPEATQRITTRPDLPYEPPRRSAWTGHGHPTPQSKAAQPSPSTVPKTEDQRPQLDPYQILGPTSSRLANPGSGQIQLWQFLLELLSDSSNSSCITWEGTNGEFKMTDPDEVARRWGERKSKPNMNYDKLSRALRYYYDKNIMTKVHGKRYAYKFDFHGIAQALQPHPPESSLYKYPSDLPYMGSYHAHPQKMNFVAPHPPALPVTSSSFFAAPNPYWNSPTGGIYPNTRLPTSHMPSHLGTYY
Experiment: pull-down; purified His-ERG conjugated to cobalt beads (His-tag isolation dynabeads) as bait; purified FLAG-GST-EWS proteins pulled down; FLAG immunoblot; both purified

Substance: N-terminal degradation product arising from full-length EWS (domain or fragment)
- binding: binds

No constants are given. Whether binding was seen depends on the method and setting. A result given as binding can be weak or reduced; the word gives no strength. Tags and fused reporters may be left off the sequences shown.
